Assay results published in patent US20220064310A1 (DEVELOPMENT CENTER FOR BIOTECHNOLOGY, published 2022).
Results are given in words; binding and its absence hold for the method and conditions named. Some entries that bind do so weakly or less than the wild type.

By UniProt entry, the sequences of proteins in these tests, tags left out. Where a name states a change or a piece, a line headed by the entry shows the natural chain unless it says otherwise. Residues count along the entry.
UniProt P07333: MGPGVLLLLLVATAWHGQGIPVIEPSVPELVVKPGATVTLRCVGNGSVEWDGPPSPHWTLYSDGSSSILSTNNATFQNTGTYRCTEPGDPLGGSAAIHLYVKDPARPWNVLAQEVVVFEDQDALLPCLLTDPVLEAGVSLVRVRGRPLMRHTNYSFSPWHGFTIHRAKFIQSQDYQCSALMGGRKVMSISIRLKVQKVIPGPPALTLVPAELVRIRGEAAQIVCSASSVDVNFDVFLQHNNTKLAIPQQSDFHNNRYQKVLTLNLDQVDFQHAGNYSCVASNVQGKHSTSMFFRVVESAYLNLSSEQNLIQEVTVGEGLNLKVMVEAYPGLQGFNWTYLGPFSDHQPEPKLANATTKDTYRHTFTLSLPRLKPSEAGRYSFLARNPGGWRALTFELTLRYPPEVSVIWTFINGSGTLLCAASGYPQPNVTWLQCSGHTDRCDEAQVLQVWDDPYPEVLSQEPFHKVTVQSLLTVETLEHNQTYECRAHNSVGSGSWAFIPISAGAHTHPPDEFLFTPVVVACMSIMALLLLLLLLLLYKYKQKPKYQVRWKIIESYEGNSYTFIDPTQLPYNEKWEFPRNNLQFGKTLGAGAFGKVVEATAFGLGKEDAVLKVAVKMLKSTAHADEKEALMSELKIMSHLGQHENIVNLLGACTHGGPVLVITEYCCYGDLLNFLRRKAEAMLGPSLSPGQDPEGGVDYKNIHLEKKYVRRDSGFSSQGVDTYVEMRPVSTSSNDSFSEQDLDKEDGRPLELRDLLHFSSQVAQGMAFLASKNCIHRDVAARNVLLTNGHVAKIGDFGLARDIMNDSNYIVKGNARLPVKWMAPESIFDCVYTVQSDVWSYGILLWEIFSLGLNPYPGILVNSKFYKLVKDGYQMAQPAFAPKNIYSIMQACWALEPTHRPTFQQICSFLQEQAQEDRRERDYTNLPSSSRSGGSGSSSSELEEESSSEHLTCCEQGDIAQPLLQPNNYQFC
human CSF-1R on the cell surface (THP-1 cells, endogenous; Ba/F3 cells stably expressing full-length human CSF-1R): residues 20-972 of P07333
human CSF-1R-Fc protein (M-CSF R/CD115 Fc chimera, R&D Systems): residues 20-512 of P07333

Key:
[1] = target: CSF-1R ECD variant W50G (human) (UniProt P07333); assay: ELISA, coated CSF-1R ECD variant W50G, AB21 titrated, Abs450
[2] = target: human CSF-1R extracellular domain (CSF-1R-ECD) (human) (UniProt P07333); assay: BIAcore (FIG. 2)
[3] = target: human CSF-1R on the cell surface (THP-1 cells, endogenous; Ba/F3 cells stably expressing full-length human CSF-1R) (human) (UniProt P07333); assay: flow cytometry on THP-1 cells
[4] = target: CSF-1R ECD variant E29A (human) (UniProt P07333); assay: ELISA, coated CSF-1R ECD variant E29A, AB21 titrated, Abs450
[5] = target: human CSF-1R-Fc protein (M-CSF R/CD115 Fc chimera, R&D Systems) (human) (UniProt P07333); assay: ELISA, M-CSF R/CD115 Fc chimera coated (FIG. 1)
[6] = target: CSF-1R ECD variant E29A (human) (UniProt P07333); assay: ELISA on CSF-1R ECD mutant
[7] = target: CSF-1R ECD variant W159G (human) (UniProt P07333); assay: ELISA on CSF-1R ECD mutant
[8] = target: CSF-1R ECD variant W50G (human) (UniProt P07333); assay: ELISA on CSF-1R ECD mutant
[9] = target: T1, CSF-1R-ECD-human Fc (in house) (human, UniProt P07333 20-512); assay: competition ELISA on coated CSF-1R-ECD-hFc; competitors RG7155, FPA008, IMC-CS4
T1 construct: In-house fusion; also called CSF-1R-ECD-hFc; CSF1R-ECD-hFc; not shown: human Fc

[10] = target: CSF-1R ECD variant W159G (human) (UniProt P07333); assay: ELISA, coated CSF-1R ECD variant W159G, AB21 titrated, Abs450
[11] = target: T1, CSF-1R-ECD-human Fc (in house); assay: competition ELISA: coated CSF-1R-ECD-hFc, first incubated with FPA008 or nothing, then AB21 titrated, mouse second antibody, 450 nm
[12] = target: T1, CSF-1R-ECD-human Fc (in house); assay: blocking ELISA: coated CSF-1R-ECD-human Fc, AB21 titrated together with M-CSF, bound CSF-1 detected with biotinylated anti-CSF-1 BAF216 and streptavidin-HRP, Abs450
Description: CSF-1R-ECD-human Fe (in house) is diluted to 1.2 μg/ml with coating buffer and coating overnight at 4° C. After incubation step, plates were washed 1 time with the wash buffer and blocking with 1% casein blocking buffer at room temperature for 2 hours. Different dilutions of purified AB21 antibodies were incubated with 250 ng/ml of M-CSF (R&D system, 216-GMP-025) in dilution buffer at 37° C. for 1 hour. After 5 times of wash, the ligand which bound to the receptor can be detected by 50 ng/ml biotinylated […] clone BAF216 (R&D Systems, UK) and 1:5000 diluted streptavidin HRP (Roche Diagnostics GmbH, DE, Cat. No. 11089153001) after 1 hour incubation. Anti CSF-1R SC 2-4A5 (Santa Cruz Biotechnology, US), which inhibits the ligand-receptor interaction, was used as positive control. Plates were developed with TMB Microwell Peroxidase Substrate (KPL, 95059-154). Absorbance was measured at 450 nm. A decrease of absorbance is found, if the anti-CST-1R antibody causes a release of CSF-1 from the dimeric complex. […] Therefore, antibodies of the invention can be used to prevent or treat diseases mediated by CSF-1R or CSF-1.

[13] = target: human CSF-1R extracellular domain (CSF-1R-ECD) (human) (UniProt P07333); assay: ELISA, coated CSF1R-ECD (unmutated), AB21 titrated, Abs450
[14] = target: T1, CSF-1R-ECD-human Fc (in house); assay: competition ELISA: coated CSF-1R-ECD-hFc, first incubated with RG7155 (1 ug/mL), IMC-CS4 (0.25 ug/mL) or nothing, then AB21 titrated, mouse second antibody, 450 nm
[15] = target: T1, CSF-1R-ECD-human Fc (in house); assay: ELISA, coated CSF1R-ECD-hFc 1 ug/ml, anti-kappa HRP, OD450
Description: (§1) To know the binding affinity differences among individual antibodies, ELISA method was used. ELISA plate was coated with 1 μg/ml of CSF1R-ECD-hFc, then add assay antibodies diluted from 50 nM to 1×10⁻⁵ nM (5-10× fold dilution). Assay was measured by adding anti-kappa HRP secondary antibody (1:5000 dilution). Binding curve and KD were determined with GraphPad Prism software using one site-specific binding for nonlinear fit methods. […] This loss of avidity was recovered by back mutations, as evidenced by humanized antibodies B1-Hu, B2-Hu, B1-B1, and B2-B1 clones. (See FIG. 11 and FIG. 12).

[16] = target: T1, CSF-1R-ECD-human Fc (in house); assay: ELISA, CSF1R-ECD-hFc coated at 1 ug/ml, anti-kappa HRP
Description: as §1

Measured: binding

B1: mouse hybridoma anti-human CSF-1R antibody mAb AB21 (antibody, V domains shown)
VH: EVQLQQSGPELEKPGASVKISCKASGYSFTGYNMNWVKQSNGKSLEWIGNIDPYYGGTTYNQKFKGKATLTVDKSSSTAYMQLKSLTSEDSAVYYCARRGDYSGSSYWYFDVWGAGTTVTVSS
VL: DIQMTQSSSYLSVSLGGRVTITCKASDHINNWLAWYQQKPGNAPRLLISGATSLETGVPSRFSGSGSGKDYTLSITSLQTEDVVTYYCQQYWSTPFTFGSGTKLEIK
notes: Mouse monoclonal antibody purified from hybridoma ascites (Protein A); also called AB21 mAb; mAb 21
not listed: [15] | [16]
binds: all other assays above

B2: humanized AB21 B1-B1 (AB21 VHB1 with AB21 VLB1) (antibody, V domains shown)
VH: EVQLVQSGAEVKKPGATVKISCKVSGYSFTGYNMNWVQQAPGKGLEWMGNIDPYYGGTTYNQKFKGKATLTVDKSTSTAYMELSSLRSEDTAVYYCARRGDYSGSSYWYFDVWGQGTLVTVSS
VL: DIQMTQSPSSLSASLGDRVTITCKASDHINNWLAWYQQKPGKAPKLLLSGATSLETGVPSRFSGSGSGTDYTLTISSLQPEDFATYYCQQYWSTPFTFGQGTKVEIK
notes: Human IgG from vector pTCAE8-AB21 in FreeStyle 293 cells, kappa light chain; also called heavy chain B1 combined with light chain B1
binds: [15]

B3: humanized AB21 B2-B1 (Hu AB21 VHB2 with AB21 VLB1) (antibody, V domains shown)
VH: EVQLVQSGAEVKKPGASVKISCKVSGYSFTGYNMNWVKQAPGKGLEWIGNIDPYYGGTTYNQKFKGKATLTVDKSTSTAYMELSSLRSEDTAVYYCARRGDYSGSSYWYFDVWGQGTLVTVSS
VL: DIQMTQSPSSLSASLGDRVTITCKASDHINNWLAWYQQKPGKAPKLLLSGATSLETGVPSRFSGSGSGTDYTLTISSLQPEDFATYYCQQYWSTPFTFGQGTKVEIK
binds: [15] | [16]

B4: humanized AB21 Hu-Hu (Hu AB21 VH with Hu AB21 VL), the initial humanized antibody (antibody, V domains shown)
VH: EVQLVQSGAEVKKPGATVKISCKVSGYSFTGYNMNWVQQAPGKGLEWMGNIDPYYGGTTYNQKFKGRVTITADTSTDTAYMELSSLRSEDTAVYYCATRGDYSGSSYWYFDVWGQGTLVTVSS
VL: DIQMTQSPSSLSASVGDRVTITCKASDHINNWLAWYQQKPGKAPKLLLYGATSLETGVPSRFSGSGSGTDYTLTISSLQPEDFATYYCQQYWSTPFTFGQGTKVEIK
notes: Human IgG from vector pTCAE8-AB21 in FreeStyle 293 cells, kappa light chain (anti-kappa HRP detection); also called heavy chain Hu combined light chain Hu
binds: [15]

B5: humanized AB21 B2-Hu (Hu AB21 VHB2 with Hu AB21 VL) (antibody, V domains shown)
VH: EVQLVQSGAEVKKPGASVKISCKVSGYSFTGYNMNWVKQAPGKGLEWIGNIDPYYGGTTYNQKFKGKATLTVDKSTSTAYMELSSLRSEDTAVYYCARRGDYSGSSYWYFDVWGQGTLVTVSS
VL: DIQMTQSPSSLSASVGDRVTITCKASDHINNWLAWYQQKPGKAPKLLLYGATSLETGVPSRFSGSGSGTDYTLTISSLQPEDFATYYCQQYWSTPFTFGQGTKVEIK
notes: Human IgG from vector pTCAE8-AB21 in FreeStyle 293 cells, kappa light chain
binds: [15] | [16]
